{"source": "PubChem BioAssay", "note": "The other results are listed elsewhere or left out. Entries without a call are filed as inconclusive in the source. For some of these results: Potency and affinity values are given separately. Residues, ends and D or L forms follow the SMILES beside them."}
{"test": "mutant huntingtin toxicity rescue agents – PC12 cells, LDH release, LDH100, dose response (AID 1596)", "conditions": "PC12 polyQ huntingtin toxicity; normalized LDH release: at 100 µM (top of the series); normalized LDH release (lower = protection): at 100 µM, stronger effect = lower value"}
{"molecule": "C[C@H](CS)C(=O)N1CCC[C@H]1C(=O)O", "normalized LDH release (lower = protection)": 0.683}
{"molecule": "Cc1cc(C(C)(C)CC(C)(C)C)ccc1OCCOCC[N+](C)(C)Cc1ccccc1", "normalized LDH release (lower = protection)": 0.877}
{"molecule": "Cn1nnnc1SCC1=C(C(=O)O)N2C(=O)C(NC(=O)C(OC=O)c3ccccc3)C2SC1", "note": "(stereo not given)", "normalized LDH release (lower = protection)": 0.807}
{"molecule": "CCCC(CCC)C(=O)O", "normalized LDH release (lower = protection)": 0.741}
{"molecule": "CC(CCc1ccccc1)NCC(O)c1ccc(O)c(C(N)=O)c1", "note": "(stereo not given)", "normalized LDH release (lower = protection)": 0.645}
{"molecule": "CO/N=C(\\C(=O)NC1C(=O)N2C(C(=O)O)=C(CSc3nc(=O)c(O)nn3C)CS[C@H]12)c1csc(N)n1", "note": "(stereo not given in full)", "normalized LDH release (lower = protection)": 0.564}
{"molecule": "CC(C)=CCC/C(C)=C/CO", "normalized LDH release (lower = protection)": 0.678}
{"molecule": "NCCCCC(N)C(=O)NC(Cc1c[nH]c2ccccc12)C(=O)NC(CCCCN)C(=O)O", "note": "(stereo not drawn) (H-Lys-Trp-Lys-OH; configuration not given here)", "normalized LDH release (lower = protection)": 0.923}
{"molecule": "Nc1ccc(S(=O)(=O)Nc2nccs2)cc1", "normalized LDH release (lower = protection)": 0.843}
{"molecule": "CC(C)CC1NC(=O)CNC1=O", "note": "(stereo not given)", "normalized LDH release (lower = protection)": 0.592}
{"molecule": "CO/N=C(/C(=O)NC1C(=O)N2C(C(=O)O)=C(COC(N)=O)CSC12)c1ccco1", "note": "(stereo not given)", "normalized LDH release (lower = protection)": 0.914}
{"molecule": "CC(C)COCC(CN(Cc1ccccc1)c1ccccc1)N1CCCC1", "note": "(stereo not given)", "normalized LDH release (lower = protection)": 1.25}
{"molecule": "CC[C@@H](CO)NCCN[C@@H](CC)CO", "normalized LDH release (lower = protection)": 0.921}
{"test": "PubChem AID 1600", "conditions": "yeast Parkinson's disease model, growth rescue; stronger effect = higher value"}
{"molecule": "COc1ccc(C[C@H](N)C(=O)N[C@@H]2[C@@H](CO)OC(n3cnc4c(N(C)C)ncnc43)[C@@H]2O)cc1", "note": "(stereo not given in full)", "score": -0.317}
{"molecule": "C[N+](C)(C)CCOC(N)=O", "score": -0.557}
{"molecule": "Cc1cc(C2CCCCC2)n(O)c(=O)c1", "score": -0.661}
{"molecule": "CC(C)C(=O)Nc1ccc([N+](=O)[O-])c(C(F)(F)F)c1", "score": -0.014}
{"molecule": "CN(C)c1ccc(C(=C2C=CC(=[N+](C)C)C=C2)c2ccc(N(C)C)cc2)cc1", "score": -5.35}
{"molecule": "CC(=O)Nc1ccc(S(=O)(=O)Nc2ccc([N+](=O)[O-])cc2)cc1", "score": -2}
{"molecule": "Nc1c(Br)cc(Br)cc1CNC1CCC(O)CC1", "note": "(stereo not given)", "score": -0.195}
{"molecule": "C[C@H](CS)C(=O)N1CCC[C@H]1C(=O)O", "score": -0.384}
{"molecule": "CC1(C)O[C@@H]2CC3C4C[C@H](F)C5=CC(=O)C=CC5(C)C4C(O)CC3(C)[C@]2(C(=O)CO)O1", "note": "(stereo not given in full)", "score": -1.06}
{"molecule": "C[C@H]1c2cccc(O)c2C(O)=C2C(=O)[C@]3(O)C(O)=C(C(N)=O)C(=O)[C@@H](N(C)C)[C@@H]3[C@@H](O)[C@@H]21", "score": 1.62}
{"molecule": "Cc1cc(C(C)(C)CC(C)(C)C)ccc1OCCOCC[N+](C)(C)Cc1ccccc1", "score": 0.101}
{"molecule": "CC(Cc1ccc(O)c(O)c1)C(C)Cc1ccc(O)c(O)c1", "note": "(stereo not given)", "score": -1.54}
{"molecule": "Cn1nnnc1SCC1=C(C(=O)O)N2C(=O)C(NC(=O)C(OC=O)c3ccccc3)C2SC1", "note": "(stereo not given)", "score": 0.038}
{"molecule": "Oc1c(Cl)cc(Cl)c(Cl)c1Cc1c(O)c(Cl)cc(Cl)c1Cl", "score": -6.21}
{"molecule": "CC(NCCC(c1ccccc1)c1ccccc1)c1ccccc1", "note": "(stereo not given)", "score": 0.24}
{"molecule": "CCCC(CCC)C(=O)O", "score": 1.64}
{"molecule": "O=NN(CCCl)C(=O)NCCCl", "score": -2.49}
{"molecule": "O=C(Nc1ccc([N+](=O)[O-])cc1Cl)c1cc(Cl)ccc1O", "score": -2.11}
{"molecule": "CCCCCCCCCCCCCCCCCC(=O)OC(CC(=O)O)C[N+](C)(C)C", "note": "(stereo not given)", "score": -3.3}
{"molecule": "CC(CCc1ccccc1)NCC(O)c1ccc(O)c(C(N)=O)c1", "note": "(stereo not given)", "score": -0.645}
{"molecule": "CO/N=C(\\C(=O)NC1C(=O)N2C(C(=O)O)=C(CSc3nc(=O)c(O)nn3C)CS[C@H]12)c1csc(N)n1", "note": "(stereo not given in full)", "score": -1.14}
{"molecule": "CC(C)=CCC/C(C)=C/CO", "score": -0.918}
{"molecule": "NC(=NCc1ccccc1)NC(=O)c1nc(Cl)c(N)nc1N", "score": -0.448}
{"molecule": "NCCCCC(N)C(=O)NC(Cc1c[nH]c2ccccc12)C(=O)NC(CCCCN)C(=O)O", "note": "(stereo not drawn) (H-Lys-Trp-Lys-OH; configuration not given here)", "score": 0.326}
{"molecule": "C=C1C(=O)OC2C1CCC1(C)CCC=C(C)C21", "note": "(stereo not given)", "score": -0.435}
{"molecule": "NC(=O)N/N=C/c1ccc([N+](=O)[O-])o1", "score": -0.528}
{"molecule": "Nc1ccc(S(=O)(=O)Nc2nccs2)cc1", "score": 0.57}
{"molecule": "CC(C)CC1NC(=O)CNC1=O", "note": "(stereo not given)", "score": 1.95}
{"molecule": "CO/N=C(/C(=O)NC1C(=O)N2C(C(=O)O)=C(COC(N)=O)CSC12)c1ccco1", "note": "(stereo not given)", "score": -0.796}
{"molecule": "CCCCC[C@H](CC(=O)NO)C(=O)N[C@H](C(=O)N1CCC[C@H]1CO)C(C)C", "score": 1.3}
{"molecule": "O=C(O)c1cc2cc(Cc3cccnc3)ccc2o1", "score": 1.05}
{"molecule": "O=C(c1ccccc1)c1ccc2n1CCC2C(=O)O", "note": "(stereo not given)", "score": -1.91}
{"molecule": "O=C1C=CC(=C(c2ccc(O)cc2)c2ccc(O)cc2)C=C1", "score": -0.82}
{"molecule": "CC(C)COCC(CN(Cc1ccccc1)c1ccccc1)N1CCCC1", "note": "(stereo not given)", "score": 0.019}
{"molecule": "CC(C)=CCC1=C(O)c2ccccc2C(=O)C1=O", "score": 0.047}
{"molecule": "O=c1cc(-c2ccc(O)cc2)oc2cc(O)cc(O)c12", "score": -1.14}
{"molecule": "CC(=O)OCC(=O)[C@@]1(O)[C@H](C)CC2C3CCC4=CC(=O)C=C[C@]4(C)[C@@]3(F)[C@@H](O)C[C@@]21C", "note": "(stereo not given in full)", "score": -0.979}
{"molecule": "CC(NC(=O)C(NC(=O)OCc1ccccc1)C(C)C)C(=O)NC(CC(=O)O)C(=O)OC(F)F", "note": "(stereo not given)", "score": 1.56}
{"molecule": "CC[C@@H](CO)NCCN[C@@H](CC)CO", "score": 0.055}
{"test": "protection from mutant SOD1-driven cell killing (AID 1601)", "conditions": "mutant SOD1 cell death rescue, 1 uM; stronger effect = higher value", "units": {"protection": "%"}}
{"molecule": "COc1ccc(C[C@H](N)C(=O)N[C@@H]2[C@@H](CO)OC(n3cnc4c(N(C)C)ncnc43)[C@@H]2O)cc1", "note": "(stereo not given in full)", "protection": -29.9}
{"molecule": "C[N+](C)(C)CCOC(N)=O", "protection": -27.1}
{"molecule": "Cc1cc(C2CCCCC2)n(O)c(=O)c1", "protection": -15.5}
{"molecule": "CC(C)C(=O)Nc1ccc([N+](=O)[O-])c(C(F)(F)F)c1", "protection": 9.89}
{"molecule": "CN(C)c1ccc(C(=C2C=CC(=[N+](C)C)C=C2)c2ccc(N(C)C)cc2)cc1", "protection": -21.4}
{"molecule": "CC(=O)Nc1ccc(S(=O)(=O)Nc2ccc([N+](=O)[O-])cc2)cc1", "protection": -2.18}
{"molecule": "Nc1c(Br)cc(Br)cc1CNC1CCC(O)CC1", "note": "(stereo not given)", "protection": 9.29}
{"molecule": "C[C@H](CS)C(=O)N1CCC[C@H]1C(=O)O", "protection": -11.9}
{"molecule": "CC1(C)O[C@@H]2CC3C4C[C@H](F)C5=CC(=O)C=CC5(C)C4C(O)CC3(C)[C@]2(C(=O)CO)O1", "note": "(stereo not given in full)", "protection": 1.43}
{"molecule": "C[C@H]1c2cccc(O)c2C(O)=C2C(=O)[C@]3(O)C(O)=C(C(N)=O)C(=O)[C@@H](N(C)C)[C@@H]3[C@@H](O)[C@@H]21", "protection": 2.3}
{"molecule": "CC(Cc1ccc(O)c(O)c1)C(C)Cc1ccc(O)c(O)c1", "note": "(stereo not given)", "protection": -41.4}
{"molecule": "Cn1nnnc1SCC1=C(C(=O)O)N2C(=O)C(NC(=O)C(OC=O)c3ccccc3)C2SC1", "note": "(stereo not given)", "protection": -25.4}
{"molecule": "Oc1c(Cl)cc(Cl)c(Cl)c1Cc1c(O)c(Cl)cc(Cl)c1Cl", "protection": -16.7}
{"molecule": "CC(NCCC(c1ccccc1)c1ccccc1)c1ccccc1", "note": "(stereo not given)", "protection": -20.3}
{"molecule": "O=NN(CCCl)C(=O)NCCCl", "protection": -11.1}
{"molecule": "O=C(Nc1ccc([N+](=O)[O-])cc1Cl)c1cc(Cl)ccc1O", "protection": -41.6}
{"molecule": "CCCCCCCCCCCCCCCCCC(=O)OC(CC(=O)O)C[N+](C)(C)C", "note": "(stereo not given)", "protection": 6.15}
{"molecule": "CC(CCc1ccccc1)NCC(O)c1ccc(O)c(C(N)=O)c1", "note": "(stereo not given)", "protection": -14.4}
{"molecule": "CO/N=C(\\C(=O)NC1C(=O)N2C(C(=O)O)=C(CSc3nc(=O)c(O)nn3C)CS[C@H]12)c1csc(N)n1", "note": "(stereo not given in full)", "protection": 15}
{"molecule": "NC(=NCc1ccccc1)NC(=O)c1nc(Cl)c(N)nc1N", "protection": -49.6}
{"molecule": "C=C1C(=O)OC2C1CCC1(C)CCC=C(C)C21", "note": "(stereo not given)", "protection": -44.4}
{"molecule": "NC(=O)N/N=C/c1ccc([N+](=O)[O-])o1", "protection": -42}
{"molecule": "Nc1ccc(S(=O)(=O)Nc2nccs2)cc1", "protection": -15.6}
{"molecule": "CC(C)CC1NC(=O)CNC1=O", "note": "(stereo not given)", "protection": 1.59}
{"molecule": "CO/N=C(/C(=O)NC1C(=O)N2C(C(=O)O)=C(COC(N)=O)CSC12)c1ccco1", "note": "(stereo not given)", "protection": 38.4}
{"molecule": "CCCCC[C@H](CC(=O)NO)C(=O)N[C@H](C(=O)N1CCC[C@H]1CO)C(C)C", "protection": -41}
{"molecule": "O=C(O)c1cc2cc(Cc3cccnc3)ccc2o1", "protection": -5.55}
{"molecule": "O=C(c1ccccc1)c1ccc2n1CCC2C(=O)O", "note": "(stereo not given)", "protection": -10.9}
{"molecule": "O=C1C=CC(=C(c2ccc(O)cc2)c2ccc(O)cc2)C=C1", "protection": -42.8}
{"molecule": "CC(C)=CCC1=C(O)c2ccccc2C(=O)C1=O", "protection": -0.91}
{"molecule": "O=c1cc(-c2ccc(O)cc2)oc2cc(O)cc(O)c12", "protection": -14.9}
{"molecule": "CC(=O)OCC(=O)[C@@]1(O)[C@H](C)CC2C3CCC4=CC(=O)C=C[C@]4(C)[C@@]3(F)[C@@H](O)C[C@@]21C", "note": "(stereo not given in full)", "protection": 23.3}
{"molecule": "CC(NC(=O)C(NC(=O)OCc1ccccc1)C(C)C)C(=O)NC(CC(=O)O)C(=O)OC(F)F", "note": "(stereo not given)", "protection": -32.4}
